Laboratory results published in publication PMC10870443.
Numbering of substitutions follows the chain as printed. No constants are given. Whether binding was seen depends on the method and setting. In cells and extracts the contact can be indirect. Some binding calls cover weakened binding; strength is not graded here. Where a sequence is shown, tags or fusion partners need not be part of it.

The chains behind the UniProt entries cited, without tags or fusion partners. Residues count along the entry.
UniProt P37173, residues 23-567: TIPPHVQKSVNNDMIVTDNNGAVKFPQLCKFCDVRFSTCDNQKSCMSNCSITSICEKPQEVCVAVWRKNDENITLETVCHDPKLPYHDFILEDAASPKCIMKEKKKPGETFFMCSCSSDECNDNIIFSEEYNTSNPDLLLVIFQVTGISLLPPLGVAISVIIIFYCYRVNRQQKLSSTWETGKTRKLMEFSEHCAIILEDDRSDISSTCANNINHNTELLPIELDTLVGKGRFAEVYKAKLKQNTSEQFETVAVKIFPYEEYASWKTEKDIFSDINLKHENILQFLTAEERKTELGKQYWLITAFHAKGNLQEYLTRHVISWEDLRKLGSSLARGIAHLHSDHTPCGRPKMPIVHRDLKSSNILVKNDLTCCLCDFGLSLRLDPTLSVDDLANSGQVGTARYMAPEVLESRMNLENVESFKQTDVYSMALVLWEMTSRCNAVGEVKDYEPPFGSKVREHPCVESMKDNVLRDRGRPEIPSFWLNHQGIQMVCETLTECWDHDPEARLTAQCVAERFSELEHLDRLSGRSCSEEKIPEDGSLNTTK
UniProt P01137, residues 279-390: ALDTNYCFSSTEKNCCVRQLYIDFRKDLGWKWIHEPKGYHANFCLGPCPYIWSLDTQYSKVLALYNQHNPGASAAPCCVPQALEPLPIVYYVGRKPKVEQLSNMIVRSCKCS

How the values were obtained:
[1] = molecular target: T1, ΔGAG-BG: human betaglycan with double Ser-Ala point mutation at S534 and S545 (no GAG chains) (human) (UniProt Q03167); assay: cross-linking + co-IP; affinity binding of [125I]-TGF-β1 to BG FL and ∆GAG mutant expressing cells, immunoprecipitation with anti-BG antibody; receptors seen as labelled bands
T1 sequence: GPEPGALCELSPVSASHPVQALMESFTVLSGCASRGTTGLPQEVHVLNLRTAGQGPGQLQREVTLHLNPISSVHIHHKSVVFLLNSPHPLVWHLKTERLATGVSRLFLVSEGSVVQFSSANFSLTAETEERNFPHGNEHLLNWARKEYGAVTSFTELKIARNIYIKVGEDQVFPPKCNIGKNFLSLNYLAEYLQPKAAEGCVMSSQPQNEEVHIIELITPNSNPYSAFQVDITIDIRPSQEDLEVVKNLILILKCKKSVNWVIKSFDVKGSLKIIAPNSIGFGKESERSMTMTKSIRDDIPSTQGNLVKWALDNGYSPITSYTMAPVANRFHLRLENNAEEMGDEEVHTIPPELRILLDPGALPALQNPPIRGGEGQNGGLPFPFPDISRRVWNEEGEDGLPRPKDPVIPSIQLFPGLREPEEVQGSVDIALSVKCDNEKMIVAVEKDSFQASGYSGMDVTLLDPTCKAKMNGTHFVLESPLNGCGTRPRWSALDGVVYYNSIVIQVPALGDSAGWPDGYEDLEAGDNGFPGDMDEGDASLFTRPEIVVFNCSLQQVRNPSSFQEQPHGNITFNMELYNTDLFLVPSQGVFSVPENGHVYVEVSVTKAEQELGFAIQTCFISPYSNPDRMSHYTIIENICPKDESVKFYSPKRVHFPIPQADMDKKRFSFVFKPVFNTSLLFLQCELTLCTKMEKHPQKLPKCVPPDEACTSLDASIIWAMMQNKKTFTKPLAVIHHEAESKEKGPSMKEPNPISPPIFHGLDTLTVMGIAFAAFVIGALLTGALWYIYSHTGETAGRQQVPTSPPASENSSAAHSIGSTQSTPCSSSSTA

[2] = molecular target: T2, S545A (HS-BG): human betaglycan single GAG attachment site mutant (human) (UniProt Q03167); assay: radioligand binding + cross-linking; 100 pM [125I]-TGF-β1 bound and crosslinked to cell surface receptors in a cold room, HEPES-KRH buffer pH 7.4; total cell lysates or immunoprecipitation with anti-BG antibody, SDS-PAGE, autoradiography; only the binder purified
T2 sequence (chain, heparan sulfate glycosaminoglycan chains (lost after heparinase III digestion)): T1 sequence with A514S

[3] = molecular target: T1, ΔGAG-BG: human betaglycan with double Ser-Ala point mutation at S534 and S545 (no GAG chains) (human); assay: as above
[4] = molecular target: T3, Ascites-derived soluble betaglycan of ovarian cancer patients (human (endogenous in patient ascites fluid)) (UniProt Q03167); assay: radioligand binding + cross-linking; patient ascites fluid, [125I]-TGF-β1 binding and crosslinking, immunoprecipitation with anti-BG antibody, autoradiography; only the binder purified
T3 sequence (chain, HS and CS glycosaminoglycan chains): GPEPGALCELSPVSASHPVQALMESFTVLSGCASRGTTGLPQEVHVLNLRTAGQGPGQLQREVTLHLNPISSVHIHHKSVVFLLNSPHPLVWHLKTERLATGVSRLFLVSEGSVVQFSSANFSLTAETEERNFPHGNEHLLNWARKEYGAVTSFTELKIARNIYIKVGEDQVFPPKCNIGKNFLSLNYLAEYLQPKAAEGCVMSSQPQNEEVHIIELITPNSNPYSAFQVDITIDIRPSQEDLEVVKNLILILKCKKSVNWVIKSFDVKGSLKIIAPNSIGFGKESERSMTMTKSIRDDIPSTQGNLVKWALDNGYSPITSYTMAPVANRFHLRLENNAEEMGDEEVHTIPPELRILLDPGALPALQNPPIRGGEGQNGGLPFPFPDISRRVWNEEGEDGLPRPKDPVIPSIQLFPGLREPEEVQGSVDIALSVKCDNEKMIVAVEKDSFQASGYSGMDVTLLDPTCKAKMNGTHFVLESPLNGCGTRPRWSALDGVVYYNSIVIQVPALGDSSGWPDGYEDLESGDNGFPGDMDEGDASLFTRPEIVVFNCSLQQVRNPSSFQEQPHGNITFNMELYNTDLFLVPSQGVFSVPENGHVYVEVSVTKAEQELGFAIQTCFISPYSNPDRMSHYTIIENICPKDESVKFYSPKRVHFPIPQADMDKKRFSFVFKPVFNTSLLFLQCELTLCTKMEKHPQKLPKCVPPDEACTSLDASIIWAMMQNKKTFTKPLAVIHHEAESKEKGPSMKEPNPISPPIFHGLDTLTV

[5] = molecular target: T4, Shed-BG from FL-BG expressing cells (soluble betaglycan ectodomain, GAG modified) (human) (UniProt Q03167); assay: radioligand binding + cross-linking; conditioned media directly labeled with 200 pM [125I]-TGF-β1, washing steps omitted, crosslinking, immunoprecipitation with anti-BG antibody, autoradiography; only the binder purified
T4 sequence (chain, glycosaminoglycan chains (forms ranging from 90 to 250 kDa)): T3 sequence (chain, HS and CS glycosaminoglycan chains)

[6] = molecular target: T5, Shed-BG from ΔGAG-BG expressing cells (soluble betaglycan ectodomain without GAG chains) (human) (UniProt Q03167); assay: as above
T5 sequence: T3 sequence (chain, HS and CS glycosaminoglycan chains) with S514A, S525A

Q: For “TGF-βRII (type II TGF-β receptor) (from UniProt P37173 23-567)”, which binding [1] is on record?
A: Its binding is “binds”.

Q: How did the binding [2] turn out when “[125I]-Bolton-Hunter labeled Transforming Growth Factor-β1 (Human, Recombinant) (from UniProt P01137 279-390) (ligand)” was run?
A: Its binding is “binds”.

Q: What about the binding [3] of the same molecule?
A: The binding was “binds”.

Q: What about the binding [4] of the same molecule?
A: Its binding is “binds”.

Q: What about the binding [5] of the same molecule?
A: Its binding is “binds”.

Q: And the binding [6]?
A: Its binding is “binds”.

B1: TGF-βRI (type-I TGF-β receptor) (receptor, UniProt P36897 34-503)
chain: LQCFCHLCTKDNFTCVTDGLCFVSVTETTDKVIHNSMCIAEIDLIPRDRPFVCAPSSKTGSVTTTYCCNQDHCNKIELPTTVKSSPGLGPVELAAVIAGPVCFVCISLMLMVYICHNRTVIHHRVPNEEDPSLDRPFISEGTTLKDLIYDMTTSGSGSGLPLLVQRTIARTIVLQESIGKGRFGEVWRGKWRGEEVAVKIFSSREERSWFREAEIYQTVMLRHENILGFIAADNKDNGTWTQLWLVSDYHEHGSLFDYLNRYTVTVEGMIKLALSTASGLAHLHMEIVGTQGKPAIAHRDLKSKNILVKKNGTCCIADLGLAVRHDSATDTIDIAPNHRVGTKRYMAPEVLDDSINMKHFESFKRADIYAMGLVFWEIARRCSIGGIHEDYQLPYYDLVPSDPSVEEMRKVVCEQKLRPNIPNRWQSCEALRVMAKIMRECWYANGAARLTALRIKKTLSQLSQQEGIKM
Q: For B1, which binding [1] is on record?
A: Its binding is “binds”.
